# In paper PMC4526467:
# Protein sequences, listed by entry. Tags and fused reporters are not part of them. Lines headed by an entry give the natural chain unless they say otherwise; changes in a name come on top. Chains listed by the source or under a name are the forms on record and can include a tag or linker.
# UniProt P18089: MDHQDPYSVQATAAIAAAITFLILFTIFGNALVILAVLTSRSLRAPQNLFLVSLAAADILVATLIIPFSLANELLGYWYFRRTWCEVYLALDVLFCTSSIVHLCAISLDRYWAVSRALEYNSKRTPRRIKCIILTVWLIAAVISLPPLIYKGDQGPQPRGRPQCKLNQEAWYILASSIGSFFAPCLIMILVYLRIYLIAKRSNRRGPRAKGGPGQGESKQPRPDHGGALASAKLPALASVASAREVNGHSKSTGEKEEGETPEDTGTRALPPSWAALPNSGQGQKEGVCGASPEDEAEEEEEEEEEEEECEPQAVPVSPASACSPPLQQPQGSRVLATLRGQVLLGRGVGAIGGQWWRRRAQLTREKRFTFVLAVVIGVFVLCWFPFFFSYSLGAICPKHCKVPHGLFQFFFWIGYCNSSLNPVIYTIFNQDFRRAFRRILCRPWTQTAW
# HA-tagged Del301-303 α2BAR (pcDNA3.1-HA-Del301-303) (P18089, form named): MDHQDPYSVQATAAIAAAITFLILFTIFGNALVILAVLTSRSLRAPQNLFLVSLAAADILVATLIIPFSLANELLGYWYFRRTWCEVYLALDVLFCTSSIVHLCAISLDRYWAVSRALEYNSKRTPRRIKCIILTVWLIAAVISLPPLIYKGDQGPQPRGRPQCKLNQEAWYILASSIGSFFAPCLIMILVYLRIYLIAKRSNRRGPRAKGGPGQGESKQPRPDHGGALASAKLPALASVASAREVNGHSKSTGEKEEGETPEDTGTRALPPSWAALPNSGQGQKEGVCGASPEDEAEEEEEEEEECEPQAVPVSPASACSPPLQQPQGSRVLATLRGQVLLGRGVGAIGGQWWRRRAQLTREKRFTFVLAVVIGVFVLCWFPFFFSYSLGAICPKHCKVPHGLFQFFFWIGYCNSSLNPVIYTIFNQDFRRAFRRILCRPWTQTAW
# UniProt Q6R891: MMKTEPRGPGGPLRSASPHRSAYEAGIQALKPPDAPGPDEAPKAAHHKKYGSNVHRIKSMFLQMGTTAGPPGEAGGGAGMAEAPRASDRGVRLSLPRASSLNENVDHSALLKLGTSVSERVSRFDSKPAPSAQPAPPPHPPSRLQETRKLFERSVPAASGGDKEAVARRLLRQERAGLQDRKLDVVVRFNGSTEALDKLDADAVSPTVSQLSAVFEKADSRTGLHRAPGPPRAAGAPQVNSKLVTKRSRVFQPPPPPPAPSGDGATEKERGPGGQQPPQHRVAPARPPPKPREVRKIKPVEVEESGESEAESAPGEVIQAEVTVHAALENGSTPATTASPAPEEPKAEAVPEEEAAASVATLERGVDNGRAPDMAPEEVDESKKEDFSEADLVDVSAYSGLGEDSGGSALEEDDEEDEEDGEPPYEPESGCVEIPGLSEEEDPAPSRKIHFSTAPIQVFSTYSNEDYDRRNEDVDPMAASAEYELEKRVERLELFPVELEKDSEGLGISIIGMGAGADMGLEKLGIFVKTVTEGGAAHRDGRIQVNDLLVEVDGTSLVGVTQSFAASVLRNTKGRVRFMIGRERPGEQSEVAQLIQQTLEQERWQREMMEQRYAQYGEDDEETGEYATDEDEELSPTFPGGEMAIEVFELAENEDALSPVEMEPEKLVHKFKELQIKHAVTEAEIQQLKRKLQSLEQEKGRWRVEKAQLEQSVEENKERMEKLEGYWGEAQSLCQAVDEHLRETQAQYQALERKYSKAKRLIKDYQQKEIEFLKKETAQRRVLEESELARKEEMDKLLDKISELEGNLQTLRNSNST
# UniProt Q91YI4: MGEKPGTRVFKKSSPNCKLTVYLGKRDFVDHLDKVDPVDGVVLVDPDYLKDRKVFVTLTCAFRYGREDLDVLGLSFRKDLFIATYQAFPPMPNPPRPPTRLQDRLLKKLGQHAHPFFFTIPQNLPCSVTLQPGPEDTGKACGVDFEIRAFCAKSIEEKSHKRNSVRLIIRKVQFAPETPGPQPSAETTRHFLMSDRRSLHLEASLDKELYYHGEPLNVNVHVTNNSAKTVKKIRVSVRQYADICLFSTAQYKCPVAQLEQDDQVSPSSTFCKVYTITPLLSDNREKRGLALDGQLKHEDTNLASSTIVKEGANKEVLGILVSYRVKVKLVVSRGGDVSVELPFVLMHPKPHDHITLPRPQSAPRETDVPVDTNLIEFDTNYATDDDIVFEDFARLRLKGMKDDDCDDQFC
# UniProt O35274: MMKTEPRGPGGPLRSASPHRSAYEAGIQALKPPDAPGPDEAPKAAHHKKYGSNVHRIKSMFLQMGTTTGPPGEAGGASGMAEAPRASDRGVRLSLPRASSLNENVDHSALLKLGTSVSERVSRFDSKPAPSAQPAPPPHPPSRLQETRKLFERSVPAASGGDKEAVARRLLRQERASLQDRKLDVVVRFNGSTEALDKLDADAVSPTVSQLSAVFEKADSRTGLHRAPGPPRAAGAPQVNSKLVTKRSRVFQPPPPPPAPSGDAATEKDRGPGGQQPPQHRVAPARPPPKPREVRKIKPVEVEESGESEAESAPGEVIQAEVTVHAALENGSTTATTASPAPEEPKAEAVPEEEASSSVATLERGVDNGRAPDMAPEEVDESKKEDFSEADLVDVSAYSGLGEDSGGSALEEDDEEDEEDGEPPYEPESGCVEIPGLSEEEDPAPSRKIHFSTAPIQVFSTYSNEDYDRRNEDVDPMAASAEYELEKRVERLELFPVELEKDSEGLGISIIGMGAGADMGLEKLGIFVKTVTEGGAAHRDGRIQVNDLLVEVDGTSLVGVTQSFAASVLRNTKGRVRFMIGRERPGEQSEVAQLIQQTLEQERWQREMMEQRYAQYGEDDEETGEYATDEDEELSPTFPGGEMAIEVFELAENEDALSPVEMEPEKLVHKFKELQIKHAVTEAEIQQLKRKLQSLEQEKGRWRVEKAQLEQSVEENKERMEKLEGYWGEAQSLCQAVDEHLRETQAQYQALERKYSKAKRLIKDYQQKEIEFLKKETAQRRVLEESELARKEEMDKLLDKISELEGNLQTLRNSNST
# Results are given in words; binding and its absence hold for the method and conditions named. In cells and extracts the contact can be indirect. Some binding calls cover weakened binding; strength is not graded here.
# Key:
# [1] = molecular target: HA-α2BAR (α2B adrenergic receptor) expressed in mouse embryonic fibroblasts (UniProt P18089); assay: co-IP; data not shown: as in the MEF co-IP but with other α2 agonists, including clonidine and UK14,304
# [2] = molecular target: HA-α2BAR (α2B adrenergic receptor) expressed in mouse embryonic fibroblasts (UniProt P18089); assay: co-IP; MEFs (Sp+/+, Sp-/-, Arr2,3+/+, Arr2,3-/-) expressing HA-α2BAR, with or without 100 μM epinephrine plus 1 μM propranolol; lysis in 10 mM Tris HCl pH 8.0, 0.3% Nonidet P-40, 10% glycerol, 5 mM EDTA, 5 mM EGTA; IP with rat anti-HA antibody; endogenous arrestin 3 or spinophilin blotted
# [3] = molecular target: HA-tagged Del301-303 α2BAR (pcDNA3.1-HA-Del301-303) (human) (UniProt P18089); assay: co-IP; transfected cells co-expressing HA-tagged WT or Del301-303 α2BAR with GFP-Arr3, GFP-Arr3R170E or Myc-spinophilin, with or without 100 μM epinephrine plus 1 μM propranolol; IP with rat anti-HA antibody
# [4] = molecular target: HA-tagged wild type human α2BAR (pcDNA3.1-HA-α2B) (human) (UniProt P18089); assay: as above
Substance,binding [1],binding [2],binding [3],binding [4]
endogenous spinophilin (from UniProt Q6R891 1-817),binds,binds,,
endogenous arrestin 3 (from UniProt Q91YI4 1-410),binds,binds,,
Myc-spinophilin (pCMV4-Myc-Sp) (from UniProt O35274 1-817),,,binds,binds
